Source: paper PMC3962104
No constants are given. Whether binding was seen depends on the method and setting. Some entries that bind do so weakly or less than the wild type. Sequences can lack the tags named with a protein.

Biological target: T1, S. cerevisiae Ump1, C-terminally 6His-tagged (wild type) (S. cerevisiae), P38293
T1 chain: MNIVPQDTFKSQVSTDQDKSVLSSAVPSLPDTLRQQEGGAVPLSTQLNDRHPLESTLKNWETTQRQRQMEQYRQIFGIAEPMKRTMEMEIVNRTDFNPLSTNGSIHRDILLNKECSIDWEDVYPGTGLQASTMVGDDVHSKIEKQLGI
Experiment: SEC; Superdex 75, 50 mM Tris pH 7.5, 100 mM NaCl; calibrated with aprotinin, ribonuclease A, chymotrypsinogen and ovalbumin; apparent molecular masses; both purified
Conditions: remark: other sources report otherwise

B1: S. cerevisiae Ump1, C-terminally 6His-tagged (wild type), P38293 1-148 (natural protein)
chain: T1 chain
binding: binds
